Data reported in patent US20240301319A1, “PERFUMING COMPOSITIONS” (FIRMNICH SA, priority 2017, published 2024).

Test: Volatility of perfuming compounds (Tables 4 to 10), with top/middle/bottom note type
Format: physicochemical
Conditions: for Type: note type by volatility
Method: In some aspects, the first perfume accord comprises perfuming compounds having a volatility ranging from 70,000 to 100 μg/l in air. In some aspects, perfuming compounds having a volatility ranging from 70,000 to 100 μg/l in air are referred to as “top notes”.
In some aspects, the second perfume accord comprises perfuming compounds having a volatility ranging from 99 to 50 μg/l in air. In some aspects, perfuming compounds having a volatility ranging from 99 to 50 μg/l in air are referred to as “middle notes”.
In some aspects, the third perfume accord comprises perfuming compounds having a volatility ranging from 49 to 0.1 μg/l in air. In some aspects, perfuming compounds having a volatility ranging from 49 to 0.1 μg/l in air are referred to as “bottom notes”.
Tables 4 to 10 describe top, middle and bottom note perfuming compounds for watery, green, fruity, citrus, sweet, gourmand and woody notes respectively.

[1] = Table 6, perfuming compounds having a fruity note

Q: Which results are given for `CC(C)CC(=O)O` [3-METHYLBUTANOIC ACID]?
A: Volatility [1]: 1530.76 μg/l air; Type [1]: TOP (perfuming compounds having a volatility ranging from 70,000 to 100 μg/l in air are referred to as “top notes”); Type (Table 10, perfuming compounds having a woody note): Top; Volatility (Table 10, woody note): 1530.76 μg/l air
